Assay results as given in patent publication US20260116970A1 (NMI NATURWISSENSCHAFTLICHES UND MEDIZINISCHES INSTITUT AN …, published 2026).
These are yes or no findings as the source states them, for the method shown. Some binding calls cover weakened binding; strength is not graded here.

Chains of the proteins cited; added tags and fusions are not shown. Lines headed by an entry give the natural chain unless they say otherwise; changes in a name come on top. A line that says so, or that is headed by a name, gives the form on record, which may keep a tag or linker. Residues count along the entry.
full-length hSIRPα on cells (P78324, residues 31-504): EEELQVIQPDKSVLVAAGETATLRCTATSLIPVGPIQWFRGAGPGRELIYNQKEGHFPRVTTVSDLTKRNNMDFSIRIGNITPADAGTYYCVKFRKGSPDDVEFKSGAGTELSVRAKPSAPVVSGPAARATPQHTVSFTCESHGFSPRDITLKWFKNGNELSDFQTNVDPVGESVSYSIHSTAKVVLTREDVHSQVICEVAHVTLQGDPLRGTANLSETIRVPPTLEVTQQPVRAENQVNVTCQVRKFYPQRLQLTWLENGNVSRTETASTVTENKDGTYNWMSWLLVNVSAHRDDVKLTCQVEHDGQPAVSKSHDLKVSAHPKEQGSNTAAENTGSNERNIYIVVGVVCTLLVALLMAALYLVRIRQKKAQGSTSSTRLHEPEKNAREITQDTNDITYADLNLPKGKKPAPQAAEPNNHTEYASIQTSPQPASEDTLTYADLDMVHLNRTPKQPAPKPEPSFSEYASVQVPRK
hSIRPα-V2 on U2OS cells (P78324, form named): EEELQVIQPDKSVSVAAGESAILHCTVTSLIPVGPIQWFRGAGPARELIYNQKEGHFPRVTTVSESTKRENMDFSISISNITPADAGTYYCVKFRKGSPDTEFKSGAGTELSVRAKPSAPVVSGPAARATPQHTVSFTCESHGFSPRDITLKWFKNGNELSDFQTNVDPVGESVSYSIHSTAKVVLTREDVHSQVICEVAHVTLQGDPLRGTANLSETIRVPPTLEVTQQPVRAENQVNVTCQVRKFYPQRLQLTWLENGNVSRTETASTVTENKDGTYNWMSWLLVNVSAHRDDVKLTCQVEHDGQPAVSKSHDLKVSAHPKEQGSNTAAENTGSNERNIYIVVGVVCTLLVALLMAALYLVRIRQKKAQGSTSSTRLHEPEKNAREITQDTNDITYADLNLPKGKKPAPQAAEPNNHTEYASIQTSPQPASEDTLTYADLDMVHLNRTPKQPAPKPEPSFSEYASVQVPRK
UniProt O00241, residues 30-398: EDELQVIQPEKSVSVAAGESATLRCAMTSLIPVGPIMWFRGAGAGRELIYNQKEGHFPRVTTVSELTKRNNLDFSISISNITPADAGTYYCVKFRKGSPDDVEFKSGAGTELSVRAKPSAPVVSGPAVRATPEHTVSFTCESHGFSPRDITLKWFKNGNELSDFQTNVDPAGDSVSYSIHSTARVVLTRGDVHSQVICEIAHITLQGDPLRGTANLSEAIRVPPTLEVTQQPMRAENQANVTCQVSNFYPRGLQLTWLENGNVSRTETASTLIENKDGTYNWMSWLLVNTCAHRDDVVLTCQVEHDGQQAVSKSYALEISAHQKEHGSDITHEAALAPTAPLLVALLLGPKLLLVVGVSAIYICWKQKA
UniProt Q9P1W8, residues 29-387: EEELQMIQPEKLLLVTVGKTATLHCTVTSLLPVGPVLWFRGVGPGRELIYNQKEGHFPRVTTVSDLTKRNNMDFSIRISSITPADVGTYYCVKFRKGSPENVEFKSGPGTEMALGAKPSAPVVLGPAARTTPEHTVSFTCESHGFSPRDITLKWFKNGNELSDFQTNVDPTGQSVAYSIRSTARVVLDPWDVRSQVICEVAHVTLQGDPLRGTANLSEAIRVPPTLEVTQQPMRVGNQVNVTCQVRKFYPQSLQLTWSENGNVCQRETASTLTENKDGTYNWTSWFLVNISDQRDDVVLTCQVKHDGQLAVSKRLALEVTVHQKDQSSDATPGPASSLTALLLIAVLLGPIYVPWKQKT

How the values were obtained:
[1] = biological target: full-length hSIRPα on cells (human) (UniProt P78324); assay: live-cell immunofluorescence on U2OS cells stably expressing hSIRPα, detection with anti-VHH-Cy5, U2OS-wt as control
[2] = biological target: full-length hSIRPα on cells (human) (UniProt P78324); assay: live-cell immunofluorescence, U2OS cells stably expressing full-length hSIRPα
hSIRPβ1 on U2OS cells = biological target: T1, hSIRPβ1 on U2OS cells (human, UniProt O00241 30-398); assay: immunofluorescence on U2OS cells transiently expressing hSIRPβ1
T1 construct: whole, on cells; also called SIRP beta
Description: (§1) Stably expressing hSIRPα U2OS cells, U2OS wt or U2OS cells transiently expressing individual hSIRPα domains (D1-3) with SPOT-Tag or different hSIRP family members (hSIRPα-V1, hSIRPα-V2, hSIRPβ1, hSIRPγ, murine SIRPα) were plated at ˜10,000 cells per well of a μClear 96-well plate (Greiner Bio One, cat. #655090) and cultivated overnight at standard conditions. For imaging, medium was replaced by live-cell visualization medium DMEMgfp-2 (Evrogen, cat. #MC102) supplemented with 10% FBS, 2 mM L-glutamine, 2 μg/ml Hoechst33258 (Sigma Aldrich) for nuclear staining. 1-100 nM of unlabeled hSIRPα Nbs in combination with 2.5 μg/ml anti-VHH secondary Cy5 AffiniPure Goat Anti-Alpaca IgG (Jackson Immuno Research) were added and incubated for 1 h at 37° C. For control staining hSIRPα Ab PE (SE5A5, BioLegend) and bivSPOT-Nb labeled with AlexaFluor647 (AF647) were used. Images were acquired with a MetaXpress Micro XL system (Molecular Devices) at 20× or 40× magnification.
(§2) Moreover, with hSIRPαV1 and hSIRPαV2, two isoforms are expressed either homozygously (v1/v1 or v2/v2) or heterozygously (v1/v2), and the frequency of distribution varies between human subpopulations (Sim et al., “Discovery of high affinity, pan-allelic, and pan-mammalian reactive antibodies against the myeloid checkpoint receptor SIRPα”, MAbs. Taylor & Francis (2019) pp. 1036-1052). To address the question of specificity, hSIRPβ1, hSIRPγ or the hSIRPα polymorphisms hSIRPα-V1 and hSIRPα-V2 were transiently expressed in U2OS cells and their recognition was analyzed by the selected hSIRPα Nbs by immunofluorescence staining. In addition, murine SIRPα was included to evaluate potential cross-reactivity between human and mouse SIRPα variants (FIG. 3A; data not shown).

hSIRPα-V2 on U2OS cells = biological target: T2, hSIRPα-V2 on U2OS cells (human, UniProt P78324 31-504); assay: immunofluorescence on U2OS cells transiently expressing hSIRPα-V2
T2 construct: whole, on cells

[3] = biological target: full-length hSIRPα on cells (human) (UniProt P78324); assay: flow cytometry, AF647-labelled Nb (200 nM) on CD14+ human PBMCs of three donors
hSIRPγ on U2OS cells = biological target: T3, hSIRPγ on U2OS cells (human, UniProt Q9P1W8 29-387); assay: immunofluorescence on U2OS cells transiently expressing hSIRPγ
T3 construct: whole, on cells; also called SIRP gamma
Description: as §1, §2

Measured: binding

B1: hSIRPα nanobody S7 (VHH)
VHH: HVQLVESGGGLVQVGDSLRLSCAPSGRTFRAYAMAWFRQAPGKEREFVAAIRWIGGTPSYKDSVKGRFTISRDNARNTFYLQMNSLEPQDTGVYYCAAEETQKGSGLGHDGRHYDYWGQGTPVTVSS
notes: Expressed from pHEN6 in E. coli and purified by IMAC; the tag is not described; also called Nb S7
binds: [1] | [2] | hSIRPβ1 on U2OS cells | hSIRPα-V2 on U2OS cells

B2: hSIRPα nanobody S8 (VHH)
VHH: QVQLVESGGGLVQPGGSLRLSCADSEFRLDEYATGWFRQAPGKEREGVACISRSGSNTKYTDSVKGRFTISRDNAKKTVYLQMNSLKPEDTAVYYCAADLTSHYLSCSSYTDYNSWGQGTQVTVSS
notes: Purified by IMAC; the tag is not described; also called Nb S8
binds: all assays above

B3: hSIRPα nanobody S12 (VHH)
VHH: QVQLVESGGGLVQPGGSLRLSCLVSGFSSSYYAIGWFRQAPGKEREGVSCITRSGDTTNYADSVKGRFTISRDDARNTVYLQMNSLKTEDTAVYSCALWAWAGSGRLRCTASEYGHWGQGTQVTVSS
notes: also called Nb S12
not listed: hSIRPα-V2 on U2OS cells
binds: all other assays above

B4: hSIRPα nanobody S33 (VHH)
VHH: EVQLVESGGGLVQPGGSLRLSCTTSGFTLDYYSVGWFRQAPGKEREGVSCITASGSSTNYANSVKGRFTISRDKVKNTVYLQMSSLKPEDTAVYYCAAEPCTVVAGILQAPTSDFGSWGQGTQVTVSS
notes: also called Nb S33
not listed: hSIRPγ on U2OS cells
binds: all other assays above

B5: hSIRPα nanobody S36 (VHH)
VHH: EVQLVESGGGLVQPGGSLRLSCAASGFTLDYYAIGWFRQVPGKEREGVSCISSDGGGNTYYADSVKGRFTISRDNAKNTVYLQMNSLKPEDSAVYSCAAGPTYYSGSYCRDPHSDYDYWGQGTQVTVSS
notes: also called Nb S36; hSIRPα-S36 Nb
binds: [1] | [2] | [3]

B6: hSIRPα nanobody S44 (VHH)
VHH: QVQLQESGGGLVQPGGSLRLACAASGFTFSSYDMSWVRQAPGKGLEWVSDIKSGGGRTYYADSVKGRFTISRDNAKNTVYLQMNSLKPEDTAVYYCGSLDNSGAYTGGGQGSQVTVSS
notes: also called Nb S44
not listed: hSIRPα-V2 on U2OS cells
binds: all other assays above

B7: hSIRPα nanobody S45 (VHH)
VHH: HVQLVESGGGLVQPGGSLRLSCAARGFSFRDSAMSWARQAPGKGLEWVGAIYSDGSTVYEKSVKGRFTISRDNAKNTMYLQMHSLKPEDSARYYCAPKGVVADEGDYSGQGTLVTVSS
notes: also called Nb S45
not listed: hSIRPγ on U2OS cells
binds: all other assays above
